Results deposited as PubChem BioAssay AID686937 (Drosophila RNAi Screening Center, 2013).
The deposit covers about 23,000 reagents; this is a random part of those with a known target gene and a result. 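Reduced-secretion tags in replicate 1 do not always agree with the z-scores; no criterion for assigning the tags was given.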 No sequences are given here. The record does not give: the amount of reagent.

- Screen: 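Genes whose loss weakens secretory pathway function in fly cells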 (primary screen)
- Cell system: Drosophila S2 cells expressing secreted horseradish peroxidase
- Knock-down reagent: long dsRNA against Drosophila genes
- Timing: about 5.5 days (5 days dsRNA, then 12 h reporter induction)
- Challenge: reporter expression induced after 5 days of dsRNA, read 12 h later; inducer not stated
- Measured: 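After 5 days of dsRNA and 12 h of reporter induction, medium peroxidase read by chemiluminescence and scored as per-plate z-score; higher values mean more reporter released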
- Scale: z-score: higher = more reporter secreted into medium

| gene | dsRNA | z-score, replicate 1 | z-score, replicate 2 |
| --- | --- | --- | --- |
| Epac (Exchange protein directly activated by cAMP) | DRSC04969 | 0.65 | 0.6 |
| Epac (Exchange protein directly activated by cAMP) | DRSC04996 | 0.19 | 0.36 |
| Epac (Exchange protein directly activated by cAMP) | DRSC04997 | 0.41 | 0.52 |
| CG31337 | DRSC12981 | -0.31 | 0.23 |
| Obp83a (Odorant-binding protein 83a) | DRSC12362 | 0.2 | -0.79 |
| Cyp49a1 (Cytochrome P450 49a1) | DRSC06737 | 0.1 | -0.18 |
| Cyp49a1 (Cytochrome P450 49a1) | DRSC07367 | 0.24 | 0.22 |
| TwdlF (TweedleF) | DRSC12225 | 0.31 | 0.22 |
| CG13058 | DRSC09941 | 0.15 | 0.28 |
| Osi5 (Osiris 5) | DRSC12276 | 0.12 | -0.02 |
| CG12914 | DRSC06229 | 0.19 | 0.22 |
| CG34320 (retired record) | DRSC17682 | 0.17 | -0.15 |
| cue (cueball) | DRSC08248 | 0.29 | -0.26 |
| Nrd1 (Nardilysin) | DRSC19830 | 0.21 | 0.34 |
| Ctr1A (Copper transporter 1A) | DRSC18336 | -0.35 | -0.98 |
| CG4306 | DRSC10409 | 0.02 | 0.37 |
| CG9396 | DRSC16487 | 0.27 | -0.13 |
| SrpRbeta (Signal recognition particle receptor beta) | DRSC21668 | -0.61 | -0.31 |
| hry (hairy) | DRSC11353 | -0.07 | -0.8 |
| Vha68-3 (Vacuolar H[+] ATPase 68kD subunit 3) | DRSC02809 | 0.8 | 0.37 |
| CG30287 | DRSC03875 | -0.03 | 0.24 |

The list goes on, starting with the last 3 of the part before.
| gene | dsRNA | z-score, replicate 1 | z-score, replicate 2 |
| --- | --- | --- | --- |
| hry (hairy) | DRSC11353 | -0.07 | -0.8 |
| Vha68-3 (Vacuolar H[+] ATPase 68kD subunit 3) | DRSC02809 | 0.8 | 0.37 |
| CG30287 | DRSC03875 | -0.03 | 0.24 |
| Ppat-Dpck | DRSC09744 | 0.2 | 0.22 |
| mTor (mechanistic Target of rapamycin) | DRSC02811 | -1.28 | -1.06 |
| CG32679 | DRSC17644 | 0.58 | 0.52 |
| CG2260 | DRSC18223 | -0.02 | 0.18 |
| CG7365 | DRSC10824 | 0.46 | 0.17 |
| CG31882 | DRSC01084 | 0.26 | 0.26 |
| Gbp2 (Growth-blocking peptide 2) | DRSC06069 | 0.09 | 0.1 |
| Vps15 (Vacuolar protein sorting 15) | DRSC16553 | -0.13 | 0.11 |
| run (runt) | DRSC20584 | 0.07 | -0.49 |
| run (runt) | DRSC21515 | 0.45 | -0.56 |
| GlcAT-P (Glucuronyltransferase P) | DRSC10603 | 0.05 | 0.26 |
| GlcAT-P (Glucuronyltransferase P) | DRSC10604 | -0.05 | 0.1 |
